Among the data in doi:10.1101/2021.04.14.439394 are binding values, retold here.

What all share (assay): affinity purification with mass spectrometry
Experiment [1] has as its target PfUPF2-HA (P. falciparum) (UniProt Q8I2Q1).
In experiment [2] the target is PfUPF1-HA (P. falciparum).
For experiment [3], the target named is PfUPF2-HA (P. falciparum) (UniProt Q8I2Q1). The source holds these as a separate data set.

Like-named read-outs stand apart in the source and are kept apart here. No constants are given. Whether binding was seen depends on the method and setting. In cells and extracts the contact can be indirect. These calls come from enrichment with a bait or labelling near it, and not all partners need be listed.

Turning to “DBP1 (PF3D7_0810600) (from UniProt Q8IAU1)”, in experiment [1], the binding result is on record as “binds”.

Take PfUPF1 (from UniProt A0A143ZY29): the binding result in experiment [1] is recorded as “binds”.

On to “PfGBP2 (G-strand binding protein 2; PF3D7_1006800) (from UniProt Q8IJX3)”, for which the binding result in experiment [1] was “binds”.

B1: PfALBA4 (PF3D7_1347500) (protein, UniProt A0A5K1K8Y8 1-372)
chain: MENDKKHNQKQNNVDENEFPNSKVLLVSVKRTRRFLERTARELLAGGTRYIILSGLGDALPLCVQLQSSLQSKNAANVVKIETSYSYFNSNYSYTPGLKIYMEKHPEFKGSRISPGYVSFHEKTDSFTPIYDENPNEYICSLNAGDNNLYVGGEGINGAFSELLSSHNQEVDKYESLFKELLTKAVNENGEKPDEEVKSVLYDNVDKKYPDVKLALCRIRNSLKKGSDHSTGSVFIVTFKKNFPHKKEKNMGMVYVVGPKGKNYNSVEEFLDEVQETAENLMTTLCDYNGLVKREEIKHVRMNTCRICLFSGSIFKHPNASKLDVAKAILNGLAVGYRHGPSPRLNFAYDENVFKDAWVETTGLQVFNHNEQ
Turning to B1, the binding entry in experiment [2] and in experiment [3] was “binds” in each case.
